Experimental data: PubChem BioAssay AID493246 (Drosophila RNAi Screening Center, 2011)
The screen tested about 21,000 reagents; below is an unselected part of those that have a named target and a result. Of all reagents, 429 (2%) are marked active. 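Values are raw and not normalised between plates; calls rest on per-plate z-scores that were not deposited.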 Reagents against one gene are numbered here. Names joined by + are all predicted targets of the reagent. The record does not give: the amount of reagent, the time to read-out.

Purpose: 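Identify essential fly genes by loss of cell viability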 (primary screen)
Cell system: Drosophila Kc and S2R+ cells
Knock-down reagent: long dsRNA against Drosophila genes
Read-out: 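Cell number per well after knock-down, printed as raw plate values; calls were based on per-plate z-scores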
Reading the numbers: Kc cell number and S2R+ cell number: higher = more cells remaining
Hit rule: 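Active when the per-plate z-score of cell number is 3 or more in the direction of fewer cells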

gene | reagent no. | Kc cell number, rep 1 | Kc cell number, rep 2 | S2R+ cell number, rep 1 | S2R+ cell number, rep 2 | call
Ublcp1 | 1 | 1.58e6 | 1.56e6 | 1.02e6 | 1.10e6 | inactive
CG13306 | 1 | 1.43e6 | 1.40e6 | 1.18e6 | 1.24e6 | inactive
CG42372 + CG30100 | 1 | 6.21e5 | – | 8.15e5 | – | inactive
Pbgs (Porphobilinogen synthase) | 1 | 1.26e6 | 1.37e6 | 1.25e6 | 1.37e6 | inactive
Mal-A6 (Maltase A6) | 1 | 1.71e6 | 1.66e6 | 1.37e6 | 1.51e6 | inactive
nab | 1 | 1.69e6 | 1.53e6 | 1.15e6 | 1.46e6 | inactive
nab | 2 | 1.36e6 | 1.13e6 | 1.15e6 | 1.25e6 | inactive
Scr (Sex combs reduced) | 1 | 8.88e5 | 8.62e5 | 6.43e5 | 8.23e5 | active
CG11125 | 1 | 1.49e6 | 1.53e6 | 1.23e6 | 1.42e6 | inactive
levy | 1 | 1.59e6 | 1.69e6 | 1.29e6 | 1.39e6 | inactive
Diedel | 1 | 1.71e6 | 1.73e6 | 1.06e6 | 1.19e6 | inactive
aralar1 | 1 | 1.51e6 | 1.70e6 | 1.04e6 | 1.06e6 | inactive
aralar1 | 2 | 5.13e5 | – | 8.82e5 | – | inactive
CG8066 | 1 | 1.36e6 | 1.49e6 | 1.09e6 | 1.23e6 | inactive
Pdxk (Pyridoxal kinase) | 1 | 1.72e6 | 1.67e6 | 1.21e6 | 1.49e6 | inactive
alphaTub84D (alpha-Tubulin at 84D) | 1 | 1.46e6 | 1.56e6 | 8.57e5 | 9.22e5 | active
veli | 1 | 1.79e6 | 1.68e6 | 1.06e6 | 1.21e6 | inactive
CG1571 | 1 | 1.72e6 | 1.70e6 | 1.10e6 | 1.22e6 | inactive
CG6362 | 1 | 1.52e6 | 1.55e6 | 1.10e6 | 1.28e6 | inactive
CG42241 (retired record) | 1 | 1.46e6 | 1.45e6 | 9.95e5 | 1.06e6 | inactive
NP15.6 | 1 | 1.39e6 | 1.39e6 | 1.01e6 | 1.08e6 | inactive
PIG-H + Kmn2 | 1 | 1.55e6 | 1.71e6 | 9.42e5 | 1.09e6 | inactive
Rox8 | 1 | 1.51e6 | 1.48e6 | 9.90e5 | 1.04e6 | inactive

Ordered by “Kc cell number, rep 2” (lowest first): some entries from above.
gene | reagent no. | Kc cell number, rep 1 | Kc cell number, rep 2 | S2R+ cell number, rep 1 | S2R+ cell number, rep 2 | call
Scr (Sex combs reduced) | 1 | 8.88e5 | 8.62e5 | 6.43e5 | 8.23e5 | active
nab | 2 | 1.36e6 | 1.13e6 | 1.15e6 | 1.25e6 | inactive
Pbgs (Porphobilinogen synthase) | 1 | 1.26e6 | 1.37e6 | 1.25e6 | 1.37e6 | inactive
nab | 1 | 1.69e6 | 1.53e6 | 1.15e6 | 1.46e6 | inactive
CG11125 | 1 | 1.49e6 | 1.53e6 | 1.23e6 | 1.42e6 | inactive
Mal-A6 (Maltase A6) | 1 | 1.71e6 | 1.66e6 | 1.37e6 | 1.51e6 | inactive
levy | 1 | 1.59e6 | 1.69e6 | 1.29e6 | 1.39e6 | inactive
aralar1 | 1 | 1.51e6 | 1.70e6 | 1.04e6 | 1.06e6 | inactive
Diedel | 1 | 1.71e6 | 1.73e6 | 1.06e6 | 1.19e6 | inactive

The results go on:
gene | reagent no. | Kc cell number, rep 1 | Kc cell number, rep 2 | S2R+ cell number, rep 1 | S2R+ cell number, rep 2 | call
CG13516 | 1 | 1.70e6 | 1.79e6 | 1.19e6 | 1.31e6 | inactive
CG6574 | 1 | 1.44e6 | 1.54e6 | 1.31e6 | 1.46e6 | inactive
CRIF (CR6-interacting factor) | 1 | 1.32e6 | 1.47e6 | 1.04e6 | 1.19e6 | inactive
Prosbeta3 (Proteasome beta3 subunit) | 1 | 1.10e6 | 1.20e6 | 6.06e5 | 6.94e5 | active
CG13901 | 1 | 1.24e6 | 1.34e6 | 1.10e6 | 1.26e6 | inactive
CG16998 | 1 | 1.41e6 | 1.35e6 | 1.22e6 | 1.21e6 | inactive
sicily (severe impairment of CI with lengthened youth) | 1 | 1.60e6 | 1.62e6 | 1.07e6 | 1.21e6 | inactive
Osi23 (Osiris 23) | 1 | 1.67e6 | 1.65e6 | 1.06e6 | 1.19e6 | inactive
stg (string) | 1 | 4.01e5 | – | 4.25e5 | – | active
CG6660 | 1 | 1.67e6 | 1.94e6 | 1.26e6 | 1.33e6 | inactive
TTLL12 (Tubulin tyrosine ligase-like 12) | 1 | 1.53e6 | 1.67e6 | 1.25e6 | 1.33e6 | inactive
CG14118 | 1 | 1.29e6 | 1.39e6 | 1.17e6 | 1.29e6 | inactive
Atg2 (Autophagy-related 2) | 1 | 1.22e6 | 1.38e6 | 1.08e6 | 1.06e6 | inactive
CG15800 | 1 | 1.49e6 | 1.55e6 | 1.36e6 | 1.48e6 | inactive
tw (twisted) | 1 | 5.34e5 | – | 8.86e5 | – | inactive
CG10383 | 1 | 1.29e6 | 1.42e6 | 1.26e6 | 1.27e6 | inactive
Pbp45 (PSEA-binding protein 45kD) | 1 | 1.49e6 | 1.56e6 | 1.23e6 | 1.29e6 | inactive
CG5726 | 1 | 1.39e6 | 1.43e6 | 1.19e6 | 1.26e6 | inactive
CG12723 | 1 | 1.57e6 | 1.52e6 | 1.04e6 | 1.20e6 | inactive
CG34315 + Orc3 | 1 | 1.08e6 | 1.41e6 | 1.06e6 | 1.18e6 | inactive
Chro (Chromator) | 1 | 1.53e6 | 1.61e6 | 1.26e6 | 1.40e6 | inactive
RpS30 (Ribosomal protein S30) | 1 | 7.96e5 | 8.04e5 | 6.31e5 | 7.17e5 | inactive
CG10413 | 1 | 1.21e6 | 1.45e6 | 1.41e6 | 1.21e6 | inactive
CG14402 | 1 | 1.51e6 | 1.63e6 | 1.26e6 | 3.81e5 | inactive
CG31516 | 1 | 1.22e6 | 1.54e6 | 1.13e6 | 1.36e6 | inactive
gukh (GUK-holder) | 1 | 1.45e6 | 1.45e6 | 1.07e6 | 1.13e6 | inactive
gukh (GUK-holder) | 2 | 1.45e6 | 1.50e6 | 1.08e6 | 1.15e6 | inactive
gukh (GUK-holder) | 3 | 1.47e6 | 1.62e6 | 1.08e6 | 1.22e6 | inactive
Chsy (Chondroitin sulfate synthase) | 1 | 1.44e6 | 1.43e6 | 1.05e6 | 1.10e6 | inactive
Chsy (Chondroitin sulfate synthase) | 2 | 1.56e6 | 1.56e6 | 1.16e6 | 1.14e6 | inactive
mIF3 (mitochondrial translation initiation factor 3) | 1 | 1.51e6 | 1.52e6 | 1.16e6 | 1.31e6 | inactive
CG5934 | 1 | 1.52e6 | 1.56e6 | 1.08e6 | 1.16e6 | inactive
mTerf3 (mitochondrial transcription termination factor 3) | 1 | 1.53e6 | 1.54e6 | 1.28e6 | 1.34e6 | inactive
CG14855 | 1 | 1.28e6 | 1.27e6 | 1.05e6 | 1.19e6 | inactive
Vajk4 | 1 | 1.27e6 | 1.27e6 | 8.98e5 | 7.69e5 | inactive
Vajk4 | 2 | 1.52e6 | 1.62e6 | 1.18e6 | 1.30e6 | inactive
